# ± gives the standard deviation of the averaged measurements. Single values are uncertain here, since repeats match poorly.
# Sequences of proteins named here, by UniProt entry; tags and fusion partners are left off. A change or cut given only in a name is not applied to a line headed by its entry.
# UniProt P28066: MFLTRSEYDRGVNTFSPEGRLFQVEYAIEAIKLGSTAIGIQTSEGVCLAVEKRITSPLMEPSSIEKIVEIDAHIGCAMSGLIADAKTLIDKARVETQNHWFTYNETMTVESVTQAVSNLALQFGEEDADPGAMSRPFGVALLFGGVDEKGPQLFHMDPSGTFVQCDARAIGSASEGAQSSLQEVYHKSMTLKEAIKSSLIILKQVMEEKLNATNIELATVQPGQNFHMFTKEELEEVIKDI
# UniProt P35580, whole entry, looked up: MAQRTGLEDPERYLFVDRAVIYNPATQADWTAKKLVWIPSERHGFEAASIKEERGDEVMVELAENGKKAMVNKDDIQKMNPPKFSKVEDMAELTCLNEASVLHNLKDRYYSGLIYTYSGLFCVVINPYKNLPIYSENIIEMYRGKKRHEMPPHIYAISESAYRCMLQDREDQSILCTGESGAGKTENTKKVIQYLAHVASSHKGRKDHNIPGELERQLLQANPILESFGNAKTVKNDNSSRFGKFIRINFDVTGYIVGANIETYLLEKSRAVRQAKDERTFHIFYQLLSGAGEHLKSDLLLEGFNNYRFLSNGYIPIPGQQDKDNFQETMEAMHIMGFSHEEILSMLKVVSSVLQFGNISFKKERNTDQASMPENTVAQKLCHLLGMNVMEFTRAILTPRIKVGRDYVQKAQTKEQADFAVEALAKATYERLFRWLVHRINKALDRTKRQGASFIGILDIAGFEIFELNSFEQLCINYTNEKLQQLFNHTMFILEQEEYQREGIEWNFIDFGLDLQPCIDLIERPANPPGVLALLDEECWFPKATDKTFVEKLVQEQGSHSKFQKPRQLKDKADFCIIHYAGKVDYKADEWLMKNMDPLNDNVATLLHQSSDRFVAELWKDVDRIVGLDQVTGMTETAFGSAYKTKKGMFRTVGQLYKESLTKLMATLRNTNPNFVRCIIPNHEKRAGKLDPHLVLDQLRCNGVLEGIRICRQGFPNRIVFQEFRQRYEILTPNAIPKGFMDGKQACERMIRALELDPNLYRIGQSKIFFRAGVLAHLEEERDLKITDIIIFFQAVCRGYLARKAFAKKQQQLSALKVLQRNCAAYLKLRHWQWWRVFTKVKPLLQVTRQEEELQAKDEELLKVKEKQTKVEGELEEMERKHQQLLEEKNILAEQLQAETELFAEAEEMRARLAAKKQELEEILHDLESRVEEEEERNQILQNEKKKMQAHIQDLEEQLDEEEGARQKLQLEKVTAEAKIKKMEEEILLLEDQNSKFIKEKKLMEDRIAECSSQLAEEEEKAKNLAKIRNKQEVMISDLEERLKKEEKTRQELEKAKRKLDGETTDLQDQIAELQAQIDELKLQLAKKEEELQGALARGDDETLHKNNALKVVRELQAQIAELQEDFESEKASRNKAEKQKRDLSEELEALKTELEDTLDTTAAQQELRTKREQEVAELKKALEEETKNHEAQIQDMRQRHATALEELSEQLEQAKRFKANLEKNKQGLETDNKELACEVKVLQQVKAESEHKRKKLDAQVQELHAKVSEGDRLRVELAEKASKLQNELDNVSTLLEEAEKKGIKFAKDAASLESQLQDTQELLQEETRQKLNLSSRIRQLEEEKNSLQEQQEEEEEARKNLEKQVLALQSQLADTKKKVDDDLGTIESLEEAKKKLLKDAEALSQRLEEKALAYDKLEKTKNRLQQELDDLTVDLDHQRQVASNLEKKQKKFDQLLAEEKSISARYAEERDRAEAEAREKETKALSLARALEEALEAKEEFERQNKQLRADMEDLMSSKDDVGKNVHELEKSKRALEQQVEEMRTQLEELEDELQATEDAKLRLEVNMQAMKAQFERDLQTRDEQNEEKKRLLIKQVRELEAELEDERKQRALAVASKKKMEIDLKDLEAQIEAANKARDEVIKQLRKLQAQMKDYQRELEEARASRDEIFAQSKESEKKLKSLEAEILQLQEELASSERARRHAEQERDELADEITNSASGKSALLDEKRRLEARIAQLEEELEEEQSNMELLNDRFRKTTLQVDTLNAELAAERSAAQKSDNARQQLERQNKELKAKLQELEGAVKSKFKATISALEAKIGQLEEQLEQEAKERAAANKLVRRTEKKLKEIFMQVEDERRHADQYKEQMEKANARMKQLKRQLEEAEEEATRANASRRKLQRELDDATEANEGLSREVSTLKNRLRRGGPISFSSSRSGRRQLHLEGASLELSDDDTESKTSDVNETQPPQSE
# UniProt P41743, whole entry: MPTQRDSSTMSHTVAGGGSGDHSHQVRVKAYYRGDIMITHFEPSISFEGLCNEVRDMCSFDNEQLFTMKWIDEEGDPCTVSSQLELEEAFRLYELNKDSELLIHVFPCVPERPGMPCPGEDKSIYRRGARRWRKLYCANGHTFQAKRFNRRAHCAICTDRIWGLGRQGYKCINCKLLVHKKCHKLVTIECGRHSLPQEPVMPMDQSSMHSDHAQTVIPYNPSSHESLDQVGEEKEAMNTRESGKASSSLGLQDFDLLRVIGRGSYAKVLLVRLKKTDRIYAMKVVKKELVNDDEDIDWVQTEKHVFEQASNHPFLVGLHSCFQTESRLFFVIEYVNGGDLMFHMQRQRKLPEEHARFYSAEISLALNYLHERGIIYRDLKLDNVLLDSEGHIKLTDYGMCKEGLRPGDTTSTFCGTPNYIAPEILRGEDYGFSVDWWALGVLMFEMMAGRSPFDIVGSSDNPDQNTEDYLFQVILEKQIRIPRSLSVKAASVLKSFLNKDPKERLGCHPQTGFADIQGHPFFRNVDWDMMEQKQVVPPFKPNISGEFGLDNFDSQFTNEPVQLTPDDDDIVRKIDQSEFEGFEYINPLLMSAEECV
# UniProt P43487, whole entry, looked up: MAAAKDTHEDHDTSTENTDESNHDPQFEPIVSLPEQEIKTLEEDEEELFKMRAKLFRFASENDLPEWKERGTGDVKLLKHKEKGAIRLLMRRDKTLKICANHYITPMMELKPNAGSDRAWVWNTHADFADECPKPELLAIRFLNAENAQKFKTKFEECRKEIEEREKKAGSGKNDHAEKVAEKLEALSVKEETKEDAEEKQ
# UniProt P46937, whole entry, looked up: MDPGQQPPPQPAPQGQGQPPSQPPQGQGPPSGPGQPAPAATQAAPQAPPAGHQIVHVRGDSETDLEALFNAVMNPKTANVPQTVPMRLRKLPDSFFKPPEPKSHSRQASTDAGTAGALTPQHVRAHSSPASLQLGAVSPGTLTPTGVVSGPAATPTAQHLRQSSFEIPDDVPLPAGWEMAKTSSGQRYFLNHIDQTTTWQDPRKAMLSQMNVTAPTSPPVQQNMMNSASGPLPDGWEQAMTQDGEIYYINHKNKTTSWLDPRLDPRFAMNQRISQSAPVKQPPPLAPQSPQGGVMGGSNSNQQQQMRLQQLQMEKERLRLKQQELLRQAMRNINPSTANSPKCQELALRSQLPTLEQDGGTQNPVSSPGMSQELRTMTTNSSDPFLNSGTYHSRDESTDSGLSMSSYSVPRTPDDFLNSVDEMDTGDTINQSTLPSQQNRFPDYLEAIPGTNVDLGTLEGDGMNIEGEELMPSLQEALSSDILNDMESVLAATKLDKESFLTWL
# UniProt P49841: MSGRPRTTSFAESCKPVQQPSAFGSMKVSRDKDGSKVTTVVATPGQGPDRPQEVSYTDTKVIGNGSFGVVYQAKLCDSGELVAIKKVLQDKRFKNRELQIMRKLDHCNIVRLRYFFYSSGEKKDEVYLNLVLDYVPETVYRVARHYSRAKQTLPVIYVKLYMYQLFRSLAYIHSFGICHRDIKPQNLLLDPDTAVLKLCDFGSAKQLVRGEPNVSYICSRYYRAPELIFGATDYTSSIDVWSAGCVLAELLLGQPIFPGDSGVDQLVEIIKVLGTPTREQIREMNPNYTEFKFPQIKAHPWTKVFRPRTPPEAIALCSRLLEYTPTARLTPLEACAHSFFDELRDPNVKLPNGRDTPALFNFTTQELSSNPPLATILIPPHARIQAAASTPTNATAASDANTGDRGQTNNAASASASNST
# UniProt P51114, whole entry, looked up: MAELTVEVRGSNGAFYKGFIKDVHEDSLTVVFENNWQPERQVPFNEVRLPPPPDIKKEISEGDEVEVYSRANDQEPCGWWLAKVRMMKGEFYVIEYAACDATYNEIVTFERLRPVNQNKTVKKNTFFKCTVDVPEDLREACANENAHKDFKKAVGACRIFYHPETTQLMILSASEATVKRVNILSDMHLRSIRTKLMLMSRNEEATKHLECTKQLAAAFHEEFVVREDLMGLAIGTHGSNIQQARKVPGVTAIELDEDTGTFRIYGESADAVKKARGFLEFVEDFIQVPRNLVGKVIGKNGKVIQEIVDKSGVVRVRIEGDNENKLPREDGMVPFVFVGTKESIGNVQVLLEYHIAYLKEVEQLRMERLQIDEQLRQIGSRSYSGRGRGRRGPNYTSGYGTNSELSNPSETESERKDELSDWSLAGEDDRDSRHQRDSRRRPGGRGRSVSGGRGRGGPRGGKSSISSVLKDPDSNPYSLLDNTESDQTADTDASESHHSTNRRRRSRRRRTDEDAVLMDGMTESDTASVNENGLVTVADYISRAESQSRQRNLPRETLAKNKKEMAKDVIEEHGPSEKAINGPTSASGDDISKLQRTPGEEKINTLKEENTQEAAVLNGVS
# UniProt P51812, whole entry, looked up: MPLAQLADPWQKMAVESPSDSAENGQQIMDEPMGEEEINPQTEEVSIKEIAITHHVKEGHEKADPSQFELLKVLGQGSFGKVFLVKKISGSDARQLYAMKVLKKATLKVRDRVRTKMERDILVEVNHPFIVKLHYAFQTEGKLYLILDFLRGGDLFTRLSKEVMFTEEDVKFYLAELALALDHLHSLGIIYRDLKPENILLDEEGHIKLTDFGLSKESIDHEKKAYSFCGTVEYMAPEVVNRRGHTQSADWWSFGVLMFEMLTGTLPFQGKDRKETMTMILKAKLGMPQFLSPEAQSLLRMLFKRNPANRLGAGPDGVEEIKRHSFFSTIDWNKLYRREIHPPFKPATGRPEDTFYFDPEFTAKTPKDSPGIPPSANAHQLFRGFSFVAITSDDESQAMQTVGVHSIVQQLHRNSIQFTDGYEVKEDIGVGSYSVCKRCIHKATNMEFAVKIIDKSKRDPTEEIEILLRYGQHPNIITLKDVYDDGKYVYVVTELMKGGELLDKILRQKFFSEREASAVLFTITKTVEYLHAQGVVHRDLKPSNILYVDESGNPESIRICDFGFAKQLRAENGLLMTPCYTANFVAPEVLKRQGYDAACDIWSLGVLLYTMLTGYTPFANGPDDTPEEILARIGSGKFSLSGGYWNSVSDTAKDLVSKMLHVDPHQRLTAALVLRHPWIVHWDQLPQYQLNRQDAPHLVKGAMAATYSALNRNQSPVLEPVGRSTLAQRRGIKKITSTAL
# UniProt P55072, whole entry, looked up: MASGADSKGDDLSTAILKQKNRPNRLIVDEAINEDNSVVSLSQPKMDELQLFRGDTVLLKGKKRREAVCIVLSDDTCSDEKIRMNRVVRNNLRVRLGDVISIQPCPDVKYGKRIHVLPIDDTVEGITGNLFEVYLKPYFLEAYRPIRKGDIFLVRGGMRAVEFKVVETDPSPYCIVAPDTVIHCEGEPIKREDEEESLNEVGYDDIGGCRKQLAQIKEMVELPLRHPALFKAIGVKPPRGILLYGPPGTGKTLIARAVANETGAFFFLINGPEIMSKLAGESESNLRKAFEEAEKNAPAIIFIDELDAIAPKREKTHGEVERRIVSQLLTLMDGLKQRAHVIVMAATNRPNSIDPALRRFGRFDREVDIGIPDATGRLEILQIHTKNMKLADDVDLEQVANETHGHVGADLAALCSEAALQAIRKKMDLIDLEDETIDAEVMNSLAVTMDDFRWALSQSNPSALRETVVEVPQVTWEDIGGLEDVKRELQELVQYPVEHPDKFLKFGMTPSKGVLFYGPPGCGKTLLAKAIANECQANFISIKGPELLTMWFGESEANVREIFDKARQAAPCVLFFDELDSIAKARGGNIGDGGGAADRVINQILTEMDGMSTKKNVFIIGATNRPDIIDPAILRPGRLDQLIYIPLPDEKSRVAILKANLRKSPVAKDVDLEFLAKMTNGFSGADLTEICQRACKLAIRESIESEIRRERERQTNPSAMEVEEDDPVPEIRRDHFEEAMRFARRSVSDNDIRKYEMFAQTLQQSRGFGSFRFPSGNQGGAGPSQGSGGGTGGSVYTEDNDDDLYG
# UniProt P56693: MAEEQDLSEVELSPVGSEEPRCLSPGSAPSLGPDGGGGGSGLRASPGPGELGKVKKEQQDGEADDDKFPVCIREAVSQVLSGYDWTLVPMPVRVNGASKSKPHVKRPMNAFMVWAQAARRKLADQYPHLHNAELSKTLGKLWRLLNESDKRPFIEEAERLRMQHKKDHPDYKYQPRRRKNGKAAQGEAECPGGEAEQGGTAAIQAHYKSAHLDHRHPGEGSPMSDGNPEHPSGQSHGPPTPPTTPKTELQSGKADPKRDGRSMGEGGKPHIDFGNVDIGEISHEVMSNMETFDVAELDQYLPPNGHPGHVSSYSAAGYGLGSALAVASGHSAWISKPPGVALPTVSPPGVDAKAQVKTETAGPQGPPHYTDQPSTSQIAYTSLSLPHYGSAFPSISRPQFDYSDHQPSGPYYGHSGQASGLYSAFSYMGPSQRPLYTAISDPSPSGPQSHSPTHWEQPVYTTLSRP
# Compound: CC[C@@H](C)Nc1cc(C(=O)N[C@H]2C[C@H]3CC[C@@H](C2)N3c2ccc(C(=O)C3CC3)cn2)c(C)cc1C(N)=O [XL888]
# Assay: phosphopeptide melting temperature shift (XL888 minus DMSO); higher = stabilised by drug treatment
# Details: 100 µM; treatment time 2 h; layout: intact cells; SK-Mel 28
# Procedure: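 Phospho-TPP in intact SK-Mel 28 cells treated with 100 uM XL888 or DMSO for 2 h, heated at 10 temperatures (37-67 C) for 3 min, soluble fraction TMT10plex-labelled and TiO2 phospho-enriched. Melting curves were fitted per phosphopeptide; the value is the melting point difference (drug minus vehicle) in each of two biological replicates.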
target,measurement,value
UniProt P18858-2_phosphosite_141 (phosphosite position: 141),phosphopeptide melting temperature shift,-0.196 °C
UniProt P20020-6_phosphosite_1119 (phosphosite position: 1119),phosphopeptide melting temperature shift,0.132 °C
UniProt P20810-9_phosphosite_408 (phosphosite position: 408),phosphopeptide melting temperature shift,0.896 ± 0.6 °C
UniProt P21127-9_phosphosite_31 (phosphosite position: 31),phosphopeptide melting temperature shift,5.86 °C
UniProt P21333-2_phosphosite_2171 (phosphosite position: 2171),phosphopeptide melting temperature shift,1.25 ± 0.25 °C
UniProt P21333-2_phosphosite_2319 (phosphosite position: 2319),phosphopeptide melting temperature shift,0.989 ± 0.98 °C
UniProt P21359-2_phosphosite_2796 (phosphosite position: 2796),phosphopeptide melting temperature shift,-0.525 °C
UniProt P25440-4_phosphosite_513 (phosphosite position: 513),phosphopeptide melting temperature shift,0.562 ± 1.1 °C
UniProt P27987-2_phosphosite_204 (phosphosite position: 204),phosphopeptide melting temperature shift,1.04 °C
UniProt P28066_phosphosite_56 (phosphosite position: 56),phosphopeptide melting temperature shift,0.892 °C
UniProt P29590-2_phosphosite_505 (phosphosite position: 505),phosphopeptide melting temperature shift,1.54 °C
UniProt P29590-2_phosphosite_518 (phosphosite position: 518),phosphopeptide melting temperature shift,-0.455 °C
UniProt P29590-2_phosphosite_530 (phosphosite position: 530),phosphopeptide melting temperature shift,-1.72 °C
UniProt P29590-4_phosphosite_518 (phosphosite position: 518),phosphopeptide melting temperature shift,3.06 °C
UniProt P30622-2_phosphosite_195 (phosphosite position: 195),phosphopeptide melting temperature shift,1.56 °C
UniProt P30622-2_phosphosite_204 (phosphosite position: 204),phosphopeptide melting temperature shift,5.3 ± 2.7 °C
UniProt P30622-2_phosphosite_348 (phosphosite position: 348),phosphopeptide melting temperature shift,0.174 °C
UniProt P35580-2_phosphosite_1968 (phosphosite position: 1968),phosphopeptide melting temperature shift,0.445 ± 0.7 °C
UniProt P36507_phosphosite_293 (phosphosite position: 293),phosphopeptide melting temperature shift,2.64 °C
UniProt P36507_phosphosite_295 (phosphosite position: 295),phosphopeptide melting temperature shift,-2.73 °C
UniProt P41227-2_phosphosite_167 (phosphosite position: 167),phosphopeptide melting temperature shift,0.734 ± 0.88 °C
UniProt P41227-2_phosphosite_190 (phosphosite position: 190),phosphopeptide melting temperature shift,-0.177 °C
UniProt P41743_phosphosite_564 (phosphosite position: 564),phosphopeptide melting temperature shift,-0.0967 °C
UniProt P42677_phosphosite_11 (phosphosite position: 11),phosphopeptide melting temperature shift,0.334 °C
UniProt P43487-2_phosphosite_13 (phosphosite position: 13),phosphopeptide melting temperature shift,3.59 ± 1.8 °C
UniProt P43487-2_phosphosite_14 (phosphosite position: 14),phosphopeptide melting temperature shift,3.79 ± 2.1 °C
UniProt P46100-2_phosphosite_394 (phosphosite position: 394),phosphopeptide melting temperature shift,0.678 °C
UniProt P46108-2_phosphosite_41 (phosphosite position: 41),phosphopeptide melting temperature shift,0.744 ± 0.19 °C
UniProt P46937-5_phosphosite_127 (phosphosite position: 127),phosphopeptide melting temperature shift,2.51 ± 0.54 °C
UniProt P48634_phosphosite_1085 (phosphosite position: 1085),phosphopeptide melting temperature shift,3.53 °C
UniProt P48634_phosphosite_1089 (phosphosite position: 1089),phosphopeptide melting temperature shift,3.15 ± 1.7 °C
UniProt P49407-2_phosphosite_404 (phosphosite position: 404),phosphopeptide melting temperature shift,2.04 °C
UniProt P49418-2_phosphosite_268 (phosphosite position: 268),phosphopeptide melting temperature shift,-0.312 °C
UniProt P49418-2_phosphosite_272 (phosphosite position: 272),phosphopeptide melting temperature shift,-0.251 °C
UniProt P49590-2_phosphosite_42 (phosphosite position: 42),phosphopeptide melting temperature shift,1.13 ± 4.1 °C
UniProt P49790-2_phosphosite_338 (phosphosite position: 338),phosphopeptide melting temperature shift,0.0278 °C
UniProt P49815-7_phosphosite_1296 (phosphosite position: 1296),phosphopeptide melting temperature shift,0.598 °C
UniProt P49841_phosphosite_216 (phosphosite position: 216),phosphopeptide melting temperature shift,-0.489 ± 0.61 °C
UniProt P51114-2_phosphosite_409 (phosphosite position: 409),phosphopeptide melting temperature shift,0.45 °C
UniProt P51812_phosphosite_365 (phosphosite position: 365),phosphopeptide melting temperature shift,-0.136 ± 0.18 °C
UniProt P51812_phosphosite_375 (phosphosite position: 375),phosphopeptide melting temperature shift,-3.53 ± 1 °C
UniProt P51948-2_phosphosite_237 (phosphosite position: 237),phosphopeptide melting temperature shift,2.02 °C
UniProt P52594-2_phosphosite_167 (phosphosite position: 167),phosphopeptide melting temperature shift,-1.49 °C
UniProt P52594-2_phosphosite_253 (phosphosite position: 253),phosphopeptide melting temperature shift,1.3 °C
UniProt P52701-2_phosphosite_137 (phosphosite position: 137),phosphopeptide melting temperature shift,-0.527 ± 2.7 °C
UniProt P52948-6_phosphosite_670 (phosphosite position: 670),phosphopeptide melting temperature shift,3.65 °C
UniProt P54253_phosphosite_238 (phosphosite position: 238),phosphopeptide melting temperature shift,-1.04 °C
UniProt P55072_phosphosite_197 (phosphosite position: 197),phosphopeptide melting temperature shift,-0.809 ± 4.7 °C
UniProt P55196-3_phosphosite_1184 (phosphosite position: 1184),phosphopeptide melting temperature shift,0.678 ± 0.4 °C
UniProt P55196-3_phosphosite_1194 (phosphosite position: 1194),phosphopeptide melting temperature shift,-0.386 °C
UniProt P55196-3_phosphosite_1698 (phosphosite position: 1698),phosphopeptide melting temperature shift,0.159 °C
UniProt P56524-2_phosphosite_97 (phosphosite position: 97),phosphopeptide melting temperature shift,0.814 °C
UniProt P56524-2_phosphosite_521 (phosphosite position: 521),phosphopeptide melting temperature shift,-0.0707 °C
UniProt P56693_phosphosite_240 (phosphosite position: 240),phosphopeptide melting temperature shift,2.18 ± 0.55 °C
UniProt P56693_phosphosite_244 (phosphosite position: 244),phosphopeptide melting temperature shift,3.34 ± 1.8 °C
UniProt P61978-2_phosphosite_116 (phosphosite position: 116),phosphopeptide melting temperature shift,-5.17 °C
UniProt P62753_phosphosite_240 (phosphosite position: 240),phosphopeptide melting temperature shift,-1.37 °C

# Exported with bars between the fields: entries from further up
target | measurement | value
UniProt P52594-2_phosphosite_253 (phosphosite position: 253) | phosphopeptide melting temperature shift | 1.3 °C
UniProt P52701-2_phosphosite_137 (phosphosite position: 137) | phosphopeptide melting temperature shift | -0.527 ± 2.7 °C
